In the supplement of paper PMC5949888:
Most values lie at the floor of the assay. Slopes are relative: functional sequences can read slightly below zero.

What follows are substances tested on Saccharomyces cerevisiae PS128 hsf1 delta, HSF1(1-493) fusion (assay: growth estimate (transactivation domain function in HSF1 fusion, heat-shock survival) (a.u. (slope of normalised read count over time)); higher = stronger growth at 37°C, i.e. more transactivation activity). Settings: library: random library.
RPAR was tested, and the growth estimate was < -0.25.
For IPSRTISVCPGCDAGRASST, the growth estimate was < -0.25.
CPERKC was tested, and the growth estimate was < -0.25.
IVYYLIGKSEWTLRGESVH was tested, and the growth estimate was < -0.25.
With NPCSRWQDRAGPGLRTGCAL the growth estimate was < -0.25.
In the case of APTMDLIVCTSQTKPFTVAV, the growth estimate is reported as < -0.25.
LILTTCARGAWRTAPKS was tested, and the growth estimate was < -0.25.
RPGRKVSRARPFSSRSPSTV showed a growth estimate of -0.238.
With INYVHPQRASVVSWLGKPVH the growth estimate was 0.356.
With GCSADGAI the growth estimate was < -0.25.
TRNRGRGVPFWLEVIYVGFW was tested, and the growth estimate was -0.246.
In the case of GTISVTVAILRANLSQ, the growth estimate is reported as < -0.25.
With MVPVSC the growth estimate was < -0.25.
With TPGTKYKLGFYLTESQ the growth estimate was < -0.25.
In the case of GHMGKFEHGDLKGQLTTTSR, the growth estimate is reported as < -0.25.
In the case of ELWSGCGSRQA, the growth estimate is reported as < -0.25.
GWFIHVKPWDRWAQVS was tested, and the growth estimate was < -0.25.
For NNSRIATVF, the growth estimate was < -0.25.
With PDDRLTH the growth estimate was < -0.25.
LSGTYPSGVEEMGTTWRKLD was tested, and the growth estimate was < -0.25.
In the case of VLPLVRDSSSAPHQPAPCTV, the growth estimate is reported as < -0.25.
For RTGG, the growth estimate was < -0.25.
In the case of FTFTLGAYPGVAGRRALAGP, the growth estimate is reported as < -0.25.
With RPLFPVYILGAICRVRCSDQ the growth estimate was < -0.25.
SRACRVRVGALLWWFYAPPI was tested, and the growth estimate was < -0.25.
SLGSWSCFR was tested, and the growth estimate was < -0.25.
FERYT was tested, and the growth estimate was < -0.25.
With KNDVLRTAVQSANSGCWLNY the growth estimate was < -0.25.
SISLPRVPVNPDDNALLKLG was tested, and the growth estimate was < -0.25.
With SIEKTSRIPDVAKQSLSFLD the growth estimate was < -0.25.
With FVRGEQSICEIISFS the growth estimate was < -0.25.
For ASRDT, the growth estimate was < -0.25.
GTLKRPVGS was tested, and the growth estimate was < -0.25.
For LFVKSLQSDPVECGCVRV, the growth estimate was < -0.25.
In the case of HDQGPSKGRPWKLRASSACG, the growth estimate is reported as < -0.25.
With EGPISRGASIS the growth estimate was < -0.25.
TPASRRVV was tested, and the growth estimate was < -0.25.
For KSKTAVCQSRATIELMGHRW, the growth estimate was < -0.25.
For CGTCGYSP, the growth estimate was < -0.25.
Substance LTC has a growth estimate of -0.243.
With REAANWLSRSAEGINDDAVR the growth estimate was < -0.25.
In the case of RGCNIGIDFLVSPYAPVPT, the growth estimate is reported as < -0.25.
In the case of LGEGSRVAYPEEARPTRGGD, the growth estimate is reported as -0.009.
For VRDRSTNNLEPLLC, the growth estimate was < -0.25.
In the case of LSASLRSLVYPPPIMCDVDP, the growth estimate is reported as < -0.25.
With TNGGHLIGWGCQKECTSPPC the growth estimate was < -0.25.
For VASAHE, the growth estimate was < -0.25.
With RMTDLGLGSQRDVVVVVRQR the growth estimate was < -0.25.
With MLVYLSKDWKLNTFGFRMPR the growth estimate was < -0.25.
RTGCDCFCEGPGVCHMRAYV was tested, and the growth estimate was < -0.25.
In the case of PPPFCTGREYRPFYVVSCNP, the growth estimate is reported as < -0.25.
For HSWMHRDRIHRRGIPTGLIS, the growth estimate was < -0.25.
For AGRQDHVVNHHRPAEVDPEA, the growth estimate was < -0.25.
With AIVRLGRGLREKGPEANVMW the growth estimate was < -0.25.
In the case of RFTSTAGHNLIRVERTVTAA, the growth estimate is reported as < -0.25.
For EDRE, the growth estimate was < -0.25.
For LASSPLGGLPGPTPHEDCHR, the growth estimate was -0.245.
In the case of PVLRPWCCDGRAKPWARSGH, the growth estimate is reported as < -0.25.
With LFHRSPCCPTALCAVEYDW the growth estimate was < -0.25.
For LGVKRR, the growth estimate was < -0.25.
LPQQCKRFANSFGRRGSSSA was tested, and the growth estimate was < -0.25.
In the case of QQPHFGVHVAS, the growth estimate is reported as < -0.25.
With ATRRRNT the growth estimate was < -0.25.
With WEGL the growth estimate was < -0.25.
For KARRDQGVESLTT, the growth estimate was < -0.25.
LPSTDISDSSAADMLLRLQR was tested, and the growth estimate was < -0.25.
For RGWGKRQKPYGLNCSRVGTR, the growth estimate was < -0.25.
With HSARPERRVCK the growth estimate was < -0.25.
In the case of RTVQRPQSRTNVPSSS, the growth estimate is reported as < -0.25.
With WMTEVESTFPRRALILYLPN the growth estimate was < -0.25.
With ILSGGSDWVSRR the growth estimate was < -0.25.
With QDGCSGEMGLERTTISVLME the growth estimate was < -0.25.
For RLSAVPISLPSFVEVIVSSE, the growth estimate was < -0.25.
For SGECGAMVALLNVGHW, the growth estimate was < -0.25.
With KGCDRVSCKSQ the growth estimate was < -0.25.
For ACRRLKLSSTLGSLSVLEHQ, the growth estimate was < -0.25.
For SCITYPVSLTM, the growth estimate was < -0.25.
TVHLAVGVTLVKQLRARTGP was tested, and the growth estimate was -0.248.
For FPTILVCPASCRTNLPHCVV, the growth estimate was < -0.25.
For NAGMNLSQFSRSGVKVPVQR, the growth estimate was < -0.25.
With KTSADKEAFCRGKRLGVS the growth estimate was < -0.25.
For HYLCSLTRSCH, the growth estimate was < -0.25.
For NLGGRRRKSSCEIPVGFVYA, the growth estimate was < -0.25.
For SCRVRNQGHG, the growth estimate was < -0.25.
For AGGGIPLQRLSSTRLDVVCV, the growth estimate was < -0.25.
In the case of LTYRCIRAKERVRELRAPPI, the growth estimate is reported as < -0.25.
For WTWTGTDTPLVASGKHV, the growth estimate was < -0.25.
With RRHRGVYLFE the growth estimate was < -0.25.
In the case of CNGTAWDI, the growth estimate is reported as < -0.25.
With LLNRQASVRRQDASCGRI the growth estimate was < -0.25.
DDSCNASR was tested, and the growth estimate was < -0.25.
FDSRKAGKALQW showed a growth estimate of -0.234.
With AVPAQYME the growth estimate was < -0.25.
With PYVKTAKDLPM the growth estimate was < -0.25.
GVESDMYSRI was tested, and the growth estimate was < -0.25.
GQACRWRVHVALVYVALHTD was tested, and the growth estimate was < -0.25.
AIVMLGTFY was tested, and the growth estimate was < -0.25.
QARSRSAWVGSFCATRGAAF was tested, and the growth estimate was < -0.25.
With IVFVVGTTISVVRTVLRSEV the growth estimate was < -0.25.
For AGERRLGGN, the growth estimate was < -0.25.
In the case of LQFAFMPSECRLKWSMVPGT, the growth estimate is reported as < -0.25.
For RAF, the growth estimate was < -0.25.
For TSYSSTPCFYDFTAAHRSQI, the growth estimate was < -0.25.
With HPRFQT the growth estimate was < -0.25.
TLAGSICPSMLVWR was tested, and the growth estimate was < -0.25.
For GQFRPLNMVVPICKCAYVCV, the growth estimate was < -0.25.
YRETAGHSPELGGLQPSLRW was tested, and the growth estimate was < -0.25.
For CRVMRGVSTAVRSRYSCLVS, the growth estimate was < -0.25.
For RMNWFKGGVSEVEELFLET, the growth estimate was 0.0385.
In the case of MHGVYYTVQTYAISIVCYNL, the growth estimate is reported as < -0.25.
With RGPGS the growth estimate was < -0.25.
In the case of VHCWSCGCVKVRRFRFQLRA, the growth estimate is reported as < -0.25.
With PWLSRAVYPIGF the growth estimate was < -0.25.
For QHIPTERGTNSGRLREMLRA, the growth estimate was < -0.25.
For MHIRFMDRRDYVELCNRGVY, the growth estimate was < -0.25.
IKRWF was tested, and the growth estimate was < -0.25.
With GGPRNAVGRAYCPRYYRLLR the growth estimate was < -0.25.
CREVRDLRSFWVLTRLAIRQ was tested, and the growth estimate was < -0.25.
For RLSTAQCSNHSRSKPQAWVQ, the growth estimate was < -0.25.
In the case of ATALWADS, the growth estimate is reported as < -0.25.
With PTGYEHG the growth estimate was < -0.25.
SAHVYAA was tested, and the growth estimate was < -0.25.
With VNVECSDLGG the growth estimate was < -0.25.
With SLCERVSSQAKKPGVGSGPA the growth estimate was < -0.25.
In the case of SCSEVYMEISRRY, the growth estimate is reported as < -0.25.
For ASVIFRLQSAPGLLGI, the growth estimate was < -0.25.
With VSFGRVRFILRPLGRFCPD the growth estimate was < -0.25.
With RRSTGSKIVLMTGSKVSHLT the growth estimate was < -0.25.
With WGHTIHHQQILRIVAVVV the growth estimate was < -0.25.
With FAERSNIMR the growth estimate was < -0.25.
For VSVYHQEMQFYWH, the growth estimate was < -0.25.
In the case of TLEKSLNGLQR, the growth estimate is reported as < -0.25.
For TTRNPMLCKSPKSVSTGLVN, the growth estimate was < -0.25.
For SSIRRGVRQPRLNAKRDNC, the growth estimate was < -0.25.
In the case of TQHRGGRKME, the growth estimate is reported as < -0.25.
For TVLQQDIVLYVFEHSTKPQG, the growth estimate was < -0.25.
GRMHGCFPIRKLCSLLGQSS was tested, and the growth estimate was < -0.25.
NRLVQA was tested, and the growth estimate was < -0.25.
LTAF was tested, and the growth estimate was < -0.25.
DSNVTC was tested, and the growth estimate was < -0.25.
For NRRPLPRSFAPSLEGRQHQV, the growth estimate was < -0.25.
In the case of RRPLRFPPDGMSAS, the growth estimate is reported as < -0.25.
For DAEASKCCPYLEVLQSDVTN, the growth estimate was < -0.25.
SKSSSYHEWVDWKWGTVLKL was tested, and the growth estimate was < -0.25.
In the case of GRVQRCTQYLLSAVAGDRIG, the growth estimate is reported as < -0.25.
With IGVRGIQGAAQSVCWHWATD the growth estimate was < -0.25.
For SPRRR, the growth estimate was < -0.25.
With GNTTGKRWRAHRCWNEL the growth estimate was < -0.25.
With VYRCMVSLAGTRIVCWRRGF the growth estimate was < -0.25.
In the case of EFARPRGAGKAGTSEWDVLF, the growth estimate is reported as < -0.25.
ALVGEGLDTSHCPRMVTSKG was tested, and the growth estimate was < -0.25.
In the case of AAGFARVSFVWLDIFGLAAG, the growth estimate is reported as < -0.25.
With EDDTGVPKLDMVELALTDRM the growth estimate was < -0.25.
For CIVRWSSACSNNGRPGQTGR, the growth estimate was < -0.25.
In the case of PAEERSPVNSSDNGERRLAR, the growth estimate is reported as < -0.25.
In the case of QTHDPVCS, the growth estimate is reported as < -0.25.
